Source: paper PMC3843111
These are yes or no findings as the source states them, for the method shown. In cells and extracts the contact can be indirect. Here binding means that the protein was enriched with, or labelled near, the bait; the list need not be complete.

Sequences of proteins named here, by UniProt entry; tags and fusion partners are left off.
UniProt Q8CHK4: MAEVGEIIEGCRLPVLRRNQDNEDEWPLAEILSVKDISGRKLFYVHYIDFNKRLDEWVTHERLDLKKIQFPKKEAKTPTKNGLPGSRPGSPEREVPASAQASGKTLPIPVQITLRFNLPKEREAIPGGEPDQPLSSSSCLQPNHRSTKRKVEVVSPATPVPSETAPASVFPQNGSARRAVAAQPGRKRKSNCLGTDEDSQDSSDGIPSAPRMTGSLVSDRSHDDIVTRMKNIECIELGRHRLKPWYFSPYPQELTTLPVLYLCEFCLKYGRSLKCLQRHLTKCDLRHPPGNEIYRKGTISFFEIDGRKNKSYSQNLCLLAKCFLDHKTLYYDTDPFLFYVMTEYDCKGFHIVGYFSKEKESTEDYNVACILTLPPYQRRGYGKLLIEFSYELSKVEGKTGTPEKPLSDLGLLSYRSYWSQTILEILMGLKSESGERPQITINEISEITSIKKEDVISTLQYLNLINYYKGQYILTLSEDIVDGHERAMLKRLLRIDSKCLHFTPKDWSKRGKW

B1: Heterogeneous nuclear ribonucleoprotein F (protein, UniProt Q9Z2X1 1-415)
chain: MMLGPEGGEGYVVKLRGLPWSCSIEDVQNFLSDCTIHDGVAGVHFIYTREGRQSGEAFVELESEDDVKLALKKDRESMGHRYIEVFKSHRTEMDWVLKHSGPNSADSANDGFVRLRGLPFGCTKEEIVQFFSGLEIVPNGITLPVDPEGKITGEAFVQFASQELAEKALGKHKERIGHRYIEVFKSSQEEVRSYSDPPLKFMSVQRPGPYDRPGTARRYIGIVKQAGLDRMRSGAYSAGYGGYEEYSGLSDGYGFTTDLFGRDLSYCLSGMYDHRYGDSEFTVQSTTGHCVHMRGLPYKATENDIYNFFSPLNPVRVHIEIGPDGRVTGEADVEFATHEEAVAAMSKDRANMQHRYIELFLNSTTGASNGAYSSQVMQGMGVSAAQATYSGLESQSVSGCYGAGYSGQNSMGGYD
B2: Non-POU domain-containing octamer-binding protein (protein, UniProt Q99K48 1-473)
chain: MQSNKAFNLEKQNHTPRKHHQHHHQQHHQQQQQQQQQQPPPPIPANGQQASSQNEGLTIDLKNFRKPGEKTFTQRSRLFVGNLPPDITEEEMRKLFEKYGKAGEVFIHKDKGFGFIRLETRTLAEIAKVELDNMPLRGKQLRVRFACHSASLTVRNLPQYVSNELLEEAFSVFGQVERAVVIVDDRGRPSGKGIVEFSGKPAARKALDRCSEGSFLLTTFPRPVTVEPMDQLDDEEGLPEKLVIKNQQFHKEREQPPRFAQPGSFEYEYAMRWKALIEMEKQQQDQVDRNIKEAREKLEMEMEAARHEHQVMLMRQDLMRRQEELRRMEELHNQEVQKRKQLELRQEEERRRREEEMRRQQEEMMRRQQEGFKGTFPDAREQEIRMGQMAMGGAMGINNRGAMPPAPVPPGTPAPPGPATMMPDGTLGLTPPTTERFGQAATMEGIGAIGGTPPAFNRPAPGAEFAPNKRRRY
B3: Protein unc-84 homolog B (protein, UniProt Q8BJS4 1-731)
chain: MSRRSQRLTRYSQDDNDGGSSSSGASSVAGSQGTVFKDSPLRTLKRKSSNMKHLSPAPQLGPSSDSHTSYYSESVVRESYIGSPRAVSLARSALLDDHLHSEPYWSGDLRGRRRRGTGGSESSKANGLTAESKASEDFFGSSSGYSSEDDLAGYTDSDQHSSGSRLRSAASRAGSFVWTLVTFPGRLFGLLYWWIGTTWYRLTTAASLLDVFVLTRSRHFSLNLKSFLWFLLLLLLLTGLTYGAWHFYPLGLQTLQPAVVSWWAAKESRKQPEVWESRDASQHFQAEQRVLSRVHSLERRLEALAADFSSNWQKEAIRLERLELRQGAAGHGGGSSLSHEDALSLLEGLVSRREATLKEDLRRDTVAHIQEELATLRAEHHQDSEDLFKKIVQASQESEARVQQLKTEWKSMTQEAFQESSVKELGRLEAQLASLRQELAALTLKQNSVADEVGLLPQKIQAARADVESQFPDWIRQFLLGDRGARSGLLQRDEMHAQLQELENKILTKMAEMQGKSAREAAASLGQILQKEGIVGVTEEQVHRIVKQALQRYSEDRIGMVDYALESGGASVISTRCSETYETKTALLSLFGIPLWYHSQSPRVILQPDVHPGNCWAFQGPQGFAVVRLSARIRPTAVTLEHVPKALSPNSTISSAPKDFAIFGFDEDLQQEGTLLGTFAYDQDGEPIQTFYFQASKMATYQVVELRILTNWGHPEYTCIYRFRVHGEPAH
B4: Protein flightless-1 homolog (protein, UniProt Q9JJ28 1-1271)
chain: MEATGVLPFVRGVDLSGNDFKGGYFPENVKAMTSLRWLKLNRTGLCYLPEELAALQKLEHLSVSHNHLTTLHGELSSLPSLRAIVARANSLKNSGVPDDIFKLDDLSVLDLSHNQLTECPRELENAKNMLVLNLSHNGIDSIPNQLFINLTDLLYLDLSENRLESLPPQMRRLVHLQTLVLNGNPLLHAQLRQLPAMMALQTLHLRNTQRTQSNLPTSLEGLSNLSDVDLSCNDLTRVPECLYTLPSLRRLNLSSNQIAELSLCIDQWVHLETLNLSRNQLTSLPSAICKLTKLKKLYLNSNKLDFDGLPSGIGKLTSLEEFMAANNNLELIPESLCRCPKLKKLVLNKNRLVTLPEAIHFLTEIQVLDVRENPSLVMPPKPADRTAEWYNIDFSLQNQLRLAGASPATVAAAAAVGSGSKDPLARKMRLRRRKDSAQDVQAKQVLKGMSDVAQEKNKNQEESIDARAPGGKVRRWDQGLEKPRLDYSEFFTEDVGQLPGLTIWQIENFVPVLVEEAFHGKFYEADCYIVLKTFLDDSGSLNWEIYYWIGGEATLDKKACSAIHAVNLRNYLGAECRTVREEMGDESEEFLQVFDNDISYIEGGTASGFYTVEDTHYVTRMYRVYGKKNIKLEPVPLKGSSLDPRFVFLLDQGLDIYVWRGAQATLSNTTKARLFAEKINKNERKGKAEITLLVQGQEPPGFWDVLGGEPSEIKNHVPDDFWPPQPKLYKVGLGLGYLELPQINYKLSVEHKKRPKVELMPGMRLLQSLLDTRCVYILDCWSDVFIWLGRKSPRLVRAAALKLGQELCGMLHRPRHTVVSRSLEGTEAQVFKAKFKNWDDVLTVDYTRNAEAVLQGQGLSGKVKRDTEKTDQMKADLTALFLPRQPPMPLAEAEQLMEEWNEDLDGMEGFVLEGRKFTRLPEEEFGHFYTQDCYVFLCRYWVPVEYEEEEKTEDKEGKASAEAREGEEAAAEAEEKQPEEDFQCIVYFWQGREASNMGWLTFTFSLQKKFESLFPGKLEVVRMTQQQENPKFLSHFKRKFIIHRGKRKVTQGTLQPTLYQIRTNGSALCTRCIQINTDSSLLNSEFCFILKVPFESEDNQGIVYAWVGRASDPDEAKLAEDILNTMFDASYSKQVINEGEEPENFFWVGIGAQKPYDDDAEYMKHTRLFRCSNEKGYFAVTEKCSDFCQDDLADDDIMLLDNGQEVYMWVGTQTSQVEIKLSLKACQVYIQHTRSKEHERPRRLRLVRKGNEQRAFTRCFHAWSTFRQAPA
B5: Highly divergent homeobox (protein, UniProt Q14B70 1-692)
chain: MNLRSVFTVEQQRILQRYYENGMTNQSKNCFQLILQCAQETKLDFSVVRTWVGNKRRKMSSKSCESGAAGTVSGTSLAAPDITVRNVVNIARPSSQQSSWTSANNDVIVTGIYSPVSSSSKQGTTKHTNTQITEAHKIPIQKAANKNDTELQLHIPVQRQVAHCKNASVLLGEKTIILSRQTSVLNAGNSVYNHTKKSYGSSPVQASEMTVPQKPSVCQRPCKIEPVGIQRSYKPEHAGLASHNLCGQKPTIRDPCCRTQNLEIREVFSLAVSDYPQRILGGNSTQKPASAEGTCLSIAMETGDAEDEYAREEELASMGAQITSYSRFYESGNSLRAENQSTNLPGPGRNLPNSQMVNIRDLSDNVLYQTRDYHLTPRTSLHTASSTMYSNTNPSRSNFSPHFVSSNQLRLSQNQNNYQISGNLSVPWITGCSRKRALQDRTQFSDRDLATLKKYWDNGMTSLGSVCREKIEAVAIELNVDCEIVRTWIGNRRRKYRLMGIEVPPPRGGPADFSEQPESGSLSALTPGEEAGPEVGEDNDRNDEVSICLSEASSQEESNELIPNETRAHKDEEHQAVSADNVKIEIIDDEESDMISNSEVEQENSLLDYKNEEVRFIENELEIQKQKYFKLQSFVRNLILAMKADDKDQQQALLSDLPPELEEMDCSHASPDPDDTSLSVSSLSEKNASDSL

The binders below were run against Tip60-H3F (Tip60 with a C-terminal 6-histidine-3-FLAG tag, from the endogenous gene) in ESCs (mouse (endogenous in ESCs)) (UniProt Q8CHK4) (assay: affinity purification with mass spectrometry; double affinity purification (FLAG-M2 Agarose, then TALON Agarose) of Tip60-H3F from ESC nuclear extracts, untagged cells as control; SDS-PAGE, in-gel digestion, LC-MS/MS).

binding	Binder
binds	B1
binds	B2
binds	B3
binds	B4
binds	B5
